Laboratory results from the supplement of paper PMC10849652.
The list shows a part of the results.

Amino acid sequences for entries named in this document (tags omitted). A change or cut given only in a name is not applied to a line headed by its entry.
UniProt Q9NRA8: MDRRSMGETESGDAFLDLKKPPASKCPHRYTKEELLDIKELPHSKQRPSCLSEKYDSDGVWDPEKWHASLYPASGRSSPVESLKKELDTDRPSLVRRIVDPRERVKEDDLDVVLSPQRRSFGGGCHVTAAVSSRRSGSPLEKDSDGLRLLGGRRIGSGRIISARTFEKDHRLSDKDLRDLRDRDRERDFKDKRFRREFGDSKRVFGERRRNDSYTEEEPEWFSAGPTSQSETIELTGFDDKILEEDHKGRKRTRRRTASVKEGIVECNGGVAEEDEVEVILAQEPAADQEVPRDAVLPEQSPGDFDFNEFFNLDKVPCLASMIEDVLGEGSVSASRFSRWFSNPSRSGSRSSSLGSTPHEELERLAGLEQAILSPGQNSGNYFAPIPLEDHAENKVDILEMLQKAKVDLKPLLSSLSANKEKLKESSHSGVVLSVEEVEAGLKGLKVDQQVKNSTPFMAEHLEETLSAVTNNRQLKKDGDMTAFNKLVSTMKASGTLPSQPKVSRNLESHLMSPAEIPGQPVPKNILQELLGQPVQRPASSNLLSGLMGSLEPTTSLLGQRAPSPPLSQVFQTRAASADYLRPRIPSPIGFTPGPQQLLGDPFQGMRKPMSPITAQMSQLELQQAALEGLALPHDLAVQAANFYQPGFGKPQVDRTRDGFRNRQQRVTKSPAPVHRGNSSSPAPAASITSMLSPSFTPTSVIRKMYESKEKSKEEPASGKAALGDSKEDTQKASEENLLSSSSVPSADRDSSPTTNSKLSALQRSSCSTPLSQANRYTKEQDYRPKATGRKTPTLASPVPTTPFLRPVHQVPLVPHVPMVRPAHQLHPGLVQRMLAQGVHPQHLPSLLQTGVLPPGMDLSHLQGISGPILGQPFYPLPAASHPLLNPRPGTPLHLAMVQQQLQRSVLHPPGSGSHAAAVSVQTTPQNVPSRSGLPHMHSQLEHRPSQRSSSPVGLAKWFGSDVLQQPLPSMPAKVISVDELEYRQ
UniProt O60573: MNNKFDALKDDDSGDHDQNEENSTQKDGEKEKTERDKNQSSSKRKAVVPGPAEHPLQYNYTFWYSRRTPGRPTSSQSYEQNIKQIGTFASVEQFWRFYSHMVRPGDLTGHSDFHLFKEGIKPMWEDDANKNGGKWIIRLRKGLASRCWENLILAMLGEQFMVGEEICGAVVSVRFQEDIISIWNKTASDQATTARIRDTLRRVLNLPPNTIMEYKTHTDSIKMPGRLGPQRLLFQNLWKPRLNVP
UniProt Q14241: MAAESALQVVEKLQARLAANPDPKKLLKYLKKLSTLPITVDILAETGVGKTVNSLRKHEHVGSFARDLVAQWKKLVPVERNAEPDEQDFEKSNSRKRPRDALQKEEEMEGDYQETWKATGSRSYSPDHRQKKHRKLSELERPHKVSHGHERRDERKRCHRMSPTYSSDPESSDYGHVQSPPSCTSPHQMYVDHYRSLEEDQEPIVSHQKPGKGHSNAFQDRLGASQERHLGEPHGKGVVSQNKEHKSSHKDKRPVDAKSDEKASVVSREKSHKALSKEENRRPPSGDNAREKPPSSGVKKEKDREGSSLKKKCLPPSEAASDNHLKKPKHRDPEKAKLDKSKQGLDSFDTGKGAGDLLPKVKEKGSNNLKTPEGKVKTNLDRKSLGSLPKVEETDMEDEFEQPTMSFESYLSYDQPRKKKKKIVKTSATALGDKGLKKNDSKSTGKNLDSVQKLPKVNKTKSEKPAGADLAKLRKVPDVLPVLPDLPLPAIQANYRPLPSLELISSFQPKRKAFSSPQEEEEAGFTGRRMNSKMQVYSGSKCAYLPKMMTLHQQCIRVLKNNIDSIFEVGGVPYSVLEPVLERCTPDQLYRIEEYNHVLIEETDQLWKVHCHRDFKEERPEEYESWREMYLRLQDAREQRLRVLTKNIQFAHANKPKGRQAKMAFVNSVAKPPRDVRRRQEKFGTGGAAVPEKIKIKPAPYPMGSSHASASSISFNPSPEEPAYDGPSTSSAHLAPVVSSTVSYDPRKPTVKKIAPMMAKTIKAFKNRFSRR
UniProt P54852: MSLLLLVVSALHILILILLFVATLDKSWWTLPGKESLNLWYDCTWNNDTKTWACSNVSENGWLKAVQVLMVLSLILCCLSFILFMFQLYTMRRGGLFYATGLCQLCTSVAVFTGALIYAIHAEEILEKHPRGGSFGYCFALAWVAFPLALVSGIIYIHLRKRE
UniProt Q8N766: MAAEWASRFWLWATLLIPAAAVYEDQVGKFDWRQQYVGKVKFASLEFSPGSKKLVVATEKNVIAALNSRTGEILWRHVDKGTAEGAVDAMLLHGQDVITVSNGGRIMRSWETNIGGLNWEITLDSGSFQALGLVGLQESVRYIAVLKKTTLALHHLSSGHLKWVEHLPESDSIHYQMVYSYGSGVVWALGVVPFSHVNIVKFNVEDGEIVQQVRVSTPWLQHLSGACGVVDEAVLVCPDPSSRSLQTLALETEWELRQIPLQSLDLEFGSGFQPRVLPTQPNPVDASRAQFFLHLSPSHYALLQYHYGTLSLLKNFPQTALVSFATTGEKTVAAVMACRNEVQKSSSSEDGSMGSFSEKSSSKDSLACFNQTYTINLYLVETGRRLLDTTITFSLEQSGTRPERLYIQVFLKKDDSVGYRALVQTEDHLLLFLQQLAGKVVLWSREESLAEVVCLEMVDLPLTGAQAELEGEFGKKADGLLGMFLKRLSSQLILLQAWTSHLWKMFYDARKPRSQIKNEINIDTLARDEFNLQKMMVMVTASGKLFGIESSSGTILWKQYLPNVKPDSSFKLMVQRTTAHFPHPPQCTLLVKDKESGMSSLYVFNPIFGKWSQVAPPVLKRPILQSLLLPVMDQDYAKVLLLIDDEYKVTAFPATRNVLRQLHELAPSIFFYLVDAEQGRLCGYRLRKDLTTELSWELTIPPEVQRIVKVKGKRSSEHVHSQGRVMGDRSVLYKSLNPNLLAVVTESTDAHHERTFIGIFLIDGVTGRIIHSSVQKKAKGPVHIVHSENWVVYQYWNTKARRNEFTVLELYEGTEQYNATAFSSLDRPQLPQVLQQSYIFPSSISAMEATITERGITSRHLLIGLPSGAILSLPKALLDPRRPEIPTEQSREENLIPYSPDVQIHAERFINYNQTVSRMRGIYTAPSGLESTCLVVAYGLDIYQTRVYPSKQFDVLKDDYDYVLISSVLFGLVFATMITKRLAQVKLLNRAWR
UniProt Q5J8M3, whole entry, looked up: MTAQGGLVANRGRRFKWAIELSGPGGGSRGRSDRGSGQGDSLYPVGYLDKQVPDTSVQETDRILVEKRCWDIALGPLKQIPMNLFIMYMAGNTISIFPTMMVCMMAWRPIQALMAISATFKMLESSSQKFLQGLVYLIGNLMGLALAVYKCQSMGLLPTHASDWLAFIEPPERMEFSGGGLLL
UniProt O95163: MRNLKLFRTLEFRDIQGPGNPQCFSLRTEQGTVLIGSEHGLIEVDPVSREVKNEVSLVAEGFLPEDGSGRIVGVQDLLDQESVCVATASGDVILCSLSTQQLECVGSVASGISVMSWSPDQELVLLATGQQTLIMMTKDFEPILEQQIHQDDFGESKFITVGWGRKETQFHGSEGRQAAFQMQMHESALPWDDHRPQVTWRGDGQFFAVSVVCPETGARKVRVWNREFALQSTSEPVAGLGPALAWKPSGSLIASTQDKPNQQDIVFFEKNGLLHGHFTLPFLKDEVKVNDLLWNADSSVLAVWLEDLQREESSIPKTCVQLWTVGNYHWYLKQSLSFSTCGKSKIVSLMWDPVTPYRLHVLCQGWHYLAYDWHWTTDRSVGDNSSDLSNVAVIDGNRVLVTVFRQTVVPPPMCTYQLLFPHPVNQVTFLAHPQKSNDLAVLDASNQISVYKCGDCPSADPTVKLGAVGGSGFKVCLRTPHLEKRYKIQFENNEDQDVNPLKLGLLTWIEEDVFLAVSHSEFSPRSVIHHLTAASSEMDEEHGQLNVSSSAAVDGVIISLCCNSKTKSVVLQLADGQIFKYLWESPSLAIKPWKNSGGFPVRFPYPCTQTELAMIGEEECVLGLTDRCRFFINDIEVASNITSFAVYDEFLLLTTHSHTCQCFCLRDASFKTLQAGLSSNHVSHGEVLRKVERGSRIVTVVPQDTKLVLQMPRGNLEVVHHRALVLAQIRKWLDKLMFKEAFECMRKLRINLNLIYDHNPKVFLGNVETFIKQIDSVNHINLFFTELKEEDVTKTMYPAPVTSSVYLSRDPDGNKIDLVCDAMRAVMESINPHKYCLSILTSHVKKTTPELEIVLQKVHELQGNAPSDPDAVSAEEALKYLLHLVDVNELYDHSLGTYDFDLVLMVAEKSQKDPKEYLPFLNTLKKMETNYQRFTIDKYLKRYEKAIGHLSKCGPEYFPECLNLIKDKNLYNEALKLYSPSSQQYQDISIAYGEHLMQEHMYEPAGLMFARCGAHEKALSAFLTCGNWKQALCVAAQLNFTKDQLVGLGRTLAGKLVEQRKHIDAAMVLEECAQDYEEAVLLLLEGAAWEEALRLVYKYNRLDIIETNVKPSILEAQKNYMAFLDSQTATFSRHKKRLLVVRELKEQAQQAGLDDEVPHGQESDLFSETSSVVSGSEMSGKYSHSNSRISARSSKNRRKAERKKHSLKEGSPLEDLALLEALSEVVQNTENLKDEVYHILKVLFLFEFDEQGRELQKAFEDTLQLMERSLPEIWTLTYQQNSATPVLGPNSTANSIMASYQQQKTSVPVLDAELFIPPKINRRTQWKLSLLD
UniProt Q7L5Y1: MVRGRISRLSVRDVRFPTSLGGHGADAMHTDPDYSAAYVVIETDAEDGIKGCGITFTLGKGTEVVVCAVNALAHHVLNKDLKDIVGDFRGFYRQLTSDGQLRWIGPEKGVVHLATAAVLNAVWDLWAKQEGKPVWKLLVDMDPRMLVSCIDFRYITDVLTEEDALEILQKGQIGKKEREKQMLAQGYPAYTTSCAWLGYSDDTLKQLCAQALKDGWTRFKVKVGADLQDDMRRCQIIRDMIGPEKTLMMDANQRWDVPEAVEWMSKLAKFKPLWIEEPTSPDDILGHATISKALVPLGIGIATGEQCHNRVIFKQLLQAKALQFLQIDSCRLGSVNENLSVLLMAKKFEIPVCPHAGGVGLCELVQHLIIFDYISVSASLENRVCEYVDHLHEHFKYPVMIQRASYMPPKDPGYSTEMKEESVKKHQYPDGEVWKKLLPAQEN
UniProt P0DP91, whole entry, looked up: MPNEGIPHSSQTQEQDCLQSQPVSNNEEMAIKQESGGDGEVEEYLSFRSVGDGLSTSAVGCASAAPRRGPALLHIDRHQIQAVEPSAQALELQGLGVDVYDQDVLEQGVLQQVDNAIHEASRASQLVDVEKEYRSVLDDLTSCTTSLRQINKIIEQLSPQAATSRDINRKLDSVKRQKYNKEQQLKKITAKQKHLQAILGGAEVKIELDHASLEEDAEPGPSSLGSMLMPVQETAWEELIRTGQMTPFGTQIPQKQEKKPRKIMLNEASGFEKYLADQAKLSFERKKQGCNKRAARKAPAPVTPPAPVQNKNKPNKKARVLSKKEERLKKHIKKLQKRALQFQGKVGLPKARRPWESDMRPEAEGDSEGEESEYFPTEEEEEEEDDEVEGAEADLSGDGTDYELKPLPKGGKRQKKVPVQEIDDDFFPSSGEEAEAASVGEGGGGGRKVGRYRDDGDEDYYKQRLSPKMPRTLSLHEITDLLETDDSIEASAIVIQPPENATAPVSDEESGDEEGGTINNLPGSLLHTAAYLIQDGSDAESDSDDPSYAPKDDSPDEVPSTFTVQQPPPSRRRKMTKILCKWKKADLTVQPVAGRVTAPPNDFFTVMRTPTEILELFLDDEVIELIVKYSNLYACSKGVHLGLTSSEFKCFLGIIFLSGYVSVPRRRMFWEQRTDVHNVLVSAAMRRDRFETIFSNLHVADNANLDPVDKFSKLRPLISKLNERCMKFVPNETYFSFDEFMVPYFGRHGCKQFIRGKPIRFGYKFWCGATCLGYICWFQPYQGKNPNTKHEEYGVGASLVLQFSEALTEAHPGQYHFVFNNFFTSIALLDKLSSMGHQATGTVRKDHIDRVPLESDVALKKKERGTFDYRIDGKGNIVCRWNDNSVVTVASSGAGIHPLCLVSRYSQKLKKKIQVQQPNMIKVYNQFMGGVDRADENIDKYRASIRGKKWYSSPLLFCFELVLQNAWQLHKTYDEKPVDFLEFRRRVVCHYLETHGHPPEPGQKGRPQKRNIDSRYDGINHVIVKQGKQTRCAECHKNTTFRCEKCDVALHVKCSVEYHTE
UniProt Q9UHY7: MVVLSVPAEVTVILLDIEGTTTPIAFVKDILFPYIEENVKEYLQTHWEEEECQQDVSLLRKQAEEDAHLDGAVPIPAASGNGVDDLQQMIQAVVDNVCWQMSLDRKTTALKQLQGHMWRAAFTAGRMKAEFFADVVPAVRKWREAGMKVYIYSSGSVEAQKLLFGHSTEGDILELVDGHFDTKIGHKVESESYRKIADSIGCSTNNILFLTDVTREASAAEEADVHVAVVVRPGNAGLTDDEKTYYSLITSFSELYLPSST

Tests used:
Experiment in all cases: log2 fold change, soluble protein after heating vs DMSO (PISA); higher = thermal stabilisation; K562 lysate, 10 uM; active = over 0.2 and 3.5 SD of the protein, either way, in both replicates (recomputed)
erlotinib = compound: C#Cc1cccc(Nc2ncnc3cc(OCCOC)c(OCCOC)cc23)c1 [erlotinib]
Outline: (§1)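 Pellets of K562 cells were dounce-homogenised in PBS pH 7.4 with 1 mM MgCl2, and the crude extract was held at 1 mg/mL protein for a 30 min treatment with 10 μM compound. Aliquots were heated for 3 min over 48°C-58°C and pooled before NP-40 was added to 0.5% at 4°C. The supernatant from 21,000xg for 90 min was quantified by TMTpro 16plex LC-MS/MS with channel sums equalised. Values are reported from duplicates as log-two fold change in thermal stability relative to solvent controls.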

[1] = compound: C/C(=N\NC(=O)C1=CC(=CC=C1)S(=O)(=O)N2CCOCC2)/C3=C(C=CC(=C3)Cl)O
Outline: as §1

[2] = compound: C1=CC(=CC=C1C2=NC3=C(N2)C=C(C=C3)C(=O)N)OC4=CC=C(C=C4)Cl
Outline: as §1

[3] = compound: C1=CC2=C(C=CC(=C2)/C=C\3/C(=O)NC(=NCC4=CC=CS4)S3)N=C1
Outline: as §1

[4] = compound: C1=CC2=NC=CN=C2C=C1/C=C/3\C(=O)NC(=O)S3
Outline: as §1

[5] = compound: C1=CC=C(C=C1)C2=NC(=C(N2)C3=CC=NC=C3)C4=CC(=C(C=C4)Cl)O
Outline: as §1

[6] = compound: C1=CC=C2C(=C1)C3=NNC4=CC=CC(=C43)C2=O
Outline: as §1

[7] = compound: C1CCN(C1)C(=O)NC2=CC=CC(=C2)NC3=NC=C(C(=N3)NCCC4=CN=CN4)Br
Outline: as §1

[8] = compound: C1CN(CCC1(CC2=CC=C(C=C2)Cl)N)C3=NC=NC4=C3C=CN4
Outline: as §1

IRAK-1-4 Inhibitor I = compound: C1COCCN1CCN2C3=CC=CC=C3N=C2NC(=O)C4=CC(=CC=C4)[N+](=O)[O-] [IRAK-1-4 Inhibitor I]
Outline: as §1

ibrutinib = compound: C=CC(=O)N1CCC[C@@H](n2nc(-c3ccc(Oc4ccccc4)cc3)c3c(N)ncnc32)C1 [ibrutinib]
Outline: as §1

[9] = compound: CC(=O)c1cnc2ccc(-c3cc(Cl)c(O)c(Cl)c3)nc2c1N[C@H]1CC[C@H](CN(C)C)CC1
Outline: as §1

ralimetinib = compound: CC(C)(C)Cn1c(N)nc2ccc(-c3[nH]c(C(C)(C)C)nc3-c3ccc(F)cc3)nc21 [ralimetinib]
Outline: as §1

[10] = compound: CC(C)(O)CC(=O)NCCn1ccc2ncnc(Nc3ccc(Oc4cccc(C(F)(F)F)c4)c(Cl)c3)c21
Outline: as §1

[11] = compound: CC(C)C1=C2N=C(C=C(N2N=C1)NCC3=CC=CC=C3)NCCCCCCN
Outline: as §1

[12] = compound: CC1=C(C(CC(=O)N1)C2=CC=C(C=C2)C(F)(F)F)C(=O)NC3=C(C=C4C(=C3)C=NN4)F
Outline: as §1

[13] = compound: CC1=C(C2=C(C=C1)C(=O)C3=CC=CC=C3N2CCCN)C
Outline: as §1

[14] = compound: CC1=C(C=C(C=C1)NC(=O)C2=CC(=CC=C2)C(C)(C)C#N)NC3=CC4=C(C=C3)N=CN(C4=O)C
Outline: as §1

[15] = compound: CC1=C(C=C(C=C1)NC(=O)C2=CC(=CC=C2)N(C)C)NC(=O)C3=CC=C(C=C3)O
Outline: as §1

[16] = compound: CC1=CC=C(C=C1)SC2=C3C=C(SC3=CN=C2)C(=O)N
Outline: as §1

Measured: log2 fold change

EMC3 (UniProt Q9P0I2)
inactive: erlotinib -0.054 | [1] 0.004 | [2] 0.002 | [3] -0.018 | [4] 0.014 | [5] -0.037 | [6] -0.077 | [7] 0.06 | [8] 0.048 | IRAK-1-4 Inhibitor I 0.063 | ibrutinib -0.047 | [9] -0.018 | ralimetinib -0.019 | [10] -0.02 | [11] -0.048 | [12] 0.056 | [13] -0.017 | [14] 0.013 | [15] 0.037 | [16] 0.007

EIF4ENIF1 isoform 3 (UniProt Q9NRA8)
inactive: erlotinib 0.013 | [1] -0.149 | [2] -0.034 | [3] 0.021 | [4] -0.059 | [5] 0.03 | [6] -0.061 | [7] -0.022 | [8] 0.139 | IRAK-1-4 Inhibitor I -0.012 | ibrutinib -0.044 | [9] -0.033 | ralimetinib 0.015 | [10] -0.045 | [11] 0.053 | [12] 0.122 | [13] -0.049 | [14] 0.064 | [15] -0.008 | [16] -0.048

EIF4E2 (UniProt O60573)
inactive: erlotinib -0.002 | [1] 0.017 | [2] -0.035 | [3] -0.037 | [4] -0.075 | [5] 0.039 | [6] -0.013 | [7] -0.036 | [8] 0.067 | IRAK-1-4 Inhibitor I 0.037 | ibrutinib -0.079 | [9] 0.004 | ralimetinib 0.039 | [10] -0.026 | [11] 0.055 | [12] 0.042 | [13] 0.083 | [14] -0.024 | [15] -0.059 | [16] -0.015

EIF2B4 isoform 2 (UniProt Q9UI10)
inactive: erlotinib 0.031 | [1] 0.027 | [2] 0.008 | [3] 0.041 | [4] 0.009 | [5] 0.013 | [6] -0.04 | [7] -0.006 | [8] -0.008 | IRAK-1-4 Inhibitor I 0.03 | ibrutinib 0.011 | [9] 0.011 | ralimetinib 0.009 | [10] -0.005 | [11] -0.036 | [12] -0.004 | [13] -0.036 | [14] 0.001 | [15] -0.005 | [16] 0.04

ELOA (UniProt Q14241)
inactive: erlotinib -0.046 | [1] -0.026 | [2] 0.015 | [3] 0.012 | [4] -0.129 | [5] -0.011 | [6] 0.092 | [7] -0.023 | [8] 0.005 | IRAK-1-4 Inhibitor I -0.102 | ibrutinib 0.022 | [9] -0.008 | ralimetinib 0.023 | [10] -0.003 | [11] 0.012 | [12] 0.031 | [13] -0.024 | [14] 0.035 | [15] 0.013 | [16] 0.034

EMP3 (UniProt P54852)
inactive: erlotinib 0.008 | [1] -0.015 | [2] 0.018 | [3] 0.017 | [4] 0.004 | [5] 0 | [6] 0.007 | [7] -0.002 | [8] 0.029 | IRAK-1-4 Inhibitor I 0.053 | ibrutinib 0.045 | [9] -0.012 | ralimetinib 0.088 | [10] -0.081 | [11] 0 | [12] 0.013 | [13] -0.003 | [14] 0.041 | [15] -0.036 | [16] -0.01

EMC1 (UniProt Q8N766)
inactive: erlotinib -0.006 | [1] 0.009 | [2] -0.032 | [3] 0.051 | [4] 0.01 | [5] -0.009 | [6] -0.039 | [7] 0.009 | [8] -0.015 | IRAK-1-4 Inhibitor I 0.008 | ibrutinib 0.009 | [9] 0.028 | ralimetinib 0.009 | [10] -0.02 | [11] -0.042 | [12] -0.004 | [13] 0.006 | [14] -0.018 | [15] -0.008 | [16] 0.011

EMC4 (UniProt Q5J8M3)
inactive: erlotinib 0.013 | [1] -0.031 | [2] 0.058 | [3] 0.031 | [4] -0.053 | [5] -0.076 | [6] -0.048 | [7] -0.03 | [8] 0 | IRAK-1-4 Inhibitor I -0.051 | ibrutinib 0.034 | [9] -0.036 | ralimetinib -0.015 | [10] 0.007 | [11] -0.029 | [12] 0.019 | [13] -0.005 | [14] 0 | [15] 0.052 | [16] 0.021

ELP1 (UniProt O95163)
inactive: erlotinib 0.005 | [1] 0.024 | [2] 0.014 | [3] -0.01 | [4] -0.001 | [5] -0.017 | [6] -0.009 | [7] -0.001 | [8] 0.027 | IRAK-1-4 Inhibitor I 0.008 | ibrutinib -0.01 | [9] -0.017 | ralimetinib 0.004 | [10] -0.04 | [11] -0.007 | [12] 0.004 | [13] -0.016 | [14] 0.043 | [15] 0.011 | [16] 0.007

ENOSF1 (UniProt Q7L5Y1)
inactive: erlotinib -0.022 | [1] 0.021 | [2] 0.029 | [3] 0.032 | [4] 0.019 | [5] -0.024 | [6] -0.032 | [7] -0.002 | [8] 0 | IRAK-1-4 Inhibitor I -0.004 | ibrutinib 0.011 | [9] 0.039 | ralimetinib 0 | [10] 0.003 | [11] -0.039 | [12] -0.059 | [13] -0.044 | [14] 0.015 | [15] 0 | [16] 0.026

ERCC6 (UniProt P0DP91)
inactive: erlotinib 0.173 | [2] -0.522 | [4] 0.107 | [5] 0.084 | [7] -0.244 | [8] 0.016 | IRAK-1-4 Inhibitor I -0.099 | ibrutinib -0.315 | ralimetinib 0.219 | [10] 0.3 | [11] 0.098 | [12] 0.173 | [13] -0.158 | [15] 0.173

ENOPH1 (UniProt Q9UHY7)
inactive: erlotinib 0.009 | [1] -0.086 | [2] -0.016 | [3] 0.029 | [4] 0.006 | [5] 0.062 | [6] 0.044 | [7] -0.005 | [8] 0.048 | IRAK-1-4 Inhibitor I 0.009 | ibrutinib -0.021 | [9] 0.04 | ralimetinib -0.008 | [10] -0.058 | [11] 0.019 | [12] -0.016 | [13] 0.046 | [14] -0.008 | [15] -0.02 | [16] 0.035
